No constants are given. Whether binding was seen depends on the method and setting. In cells and extracts the contact can be indirect. Some results given as binding are weak or reduced against the parent protein; the word gives no strength.

Sequences of proteins named here, by UniProt entry; tags and fusion partners are left off.
UniProt P09405: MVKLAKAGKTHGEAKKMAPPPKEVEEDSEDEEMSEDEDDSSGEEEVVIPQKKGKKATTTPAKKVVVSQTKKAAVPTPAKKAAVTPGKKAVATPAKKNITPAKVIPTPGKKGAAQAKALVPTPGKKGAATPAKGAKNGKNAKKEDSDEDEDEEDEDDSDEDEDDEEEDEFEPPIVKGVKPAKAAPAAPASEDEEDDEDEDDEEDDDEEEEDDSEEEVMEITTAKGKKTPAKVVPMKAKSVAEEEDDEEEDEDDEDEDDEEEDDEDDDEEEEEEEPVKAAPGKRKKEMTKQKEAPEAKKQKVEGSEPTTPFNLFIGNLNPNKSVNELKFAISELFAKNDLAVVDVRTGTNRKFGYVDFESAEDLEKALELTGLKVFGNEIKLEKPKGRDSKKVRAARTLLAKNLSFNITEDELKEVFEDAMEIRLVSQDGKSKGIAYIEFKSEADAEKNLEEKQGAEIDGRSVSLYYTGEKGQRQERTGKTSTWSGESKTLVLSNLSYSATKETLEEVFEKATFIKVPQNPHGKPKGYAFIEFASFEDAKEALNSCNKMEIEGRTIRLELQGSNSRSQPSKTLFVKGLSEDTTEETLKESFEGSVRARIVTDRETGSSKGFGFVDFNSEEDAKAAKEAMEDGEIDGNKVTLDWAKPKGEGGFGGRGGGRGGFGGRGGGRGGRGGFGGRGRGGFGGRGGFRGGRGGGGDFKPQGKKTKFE

This assay concerns the target Nucleolin (mouse), FLAG-tagged and HA-tagged copies co-expressed in transfected cells (mouse) (UniProt P09405). Nature of the assay: co-IP.

Take “Nucleolin (mouse), FLAG-tagged and HA-tagged copies co-expressed in transfected cells (from UniProt P09405 1-707)”: the binding result is “binds”.
